# For at least one compound, name, drawing or mass did not settle the structure.
# System: myogenin
# Assay: Expression of myoblast differentiation marker myogenin in C2C12 cells by Western blot
# Format: cell-based, mice
# Details: over tested concentrations
# From the text: As described above, myogenin and MyHC can be used as markers for myoblast differentiation. To investigate whether FU-LING extract and tumulosic acid have the effect of promoting differentiation of myoblasts, tumulosic acid (purchased from Sinphar pharmaceutical co. ltd), FU-LING meat extract obtained from Example 1 (1-4), FU-LING epidermis extract obtained from Example 1 (1-6), and the FU-LING fermentation extract obtained from Example 1 (1-7) were formulated into the following: (1) tumulosic acid solution, (2) FU-LING meat extract solution, (3) FU-LING epidermis extract solution, and (4) FU-LING fermentation extract solution, respectively, in dimethyl sulfoxide (DMSO; purchased from Sigma Company). […]
# After that, cell proteins in each group were extracted. Thereafter, the expression levels of myoblast differentiation markers (myogenin and MyHC) were detected by Western blot. […]
structure (smiles),measurement,value
"C=C(CC[C@@H](C(=O)O)[C@H]1[C@H](O)C[C@@]2(C)C3=C(CC[C@]12C)[C@@]1(C)CC[C@H](O)C(C)(C)[C@@H]1CC3)C(C)C [Tumulosic acid, tumulosic acid]","expression level of myogenin protein, dependence on concentration",increased along with the increase in the concentration
